Measurements taken from the supplement of paper PMC10849652.
The list shows a part of the results.

Chains of the proteins cited; added tags and fusions are not shown. Lines headed by an entry give the natural chain unless they say otherwise; changes in a name come on top.
UniProt Q9UKA2: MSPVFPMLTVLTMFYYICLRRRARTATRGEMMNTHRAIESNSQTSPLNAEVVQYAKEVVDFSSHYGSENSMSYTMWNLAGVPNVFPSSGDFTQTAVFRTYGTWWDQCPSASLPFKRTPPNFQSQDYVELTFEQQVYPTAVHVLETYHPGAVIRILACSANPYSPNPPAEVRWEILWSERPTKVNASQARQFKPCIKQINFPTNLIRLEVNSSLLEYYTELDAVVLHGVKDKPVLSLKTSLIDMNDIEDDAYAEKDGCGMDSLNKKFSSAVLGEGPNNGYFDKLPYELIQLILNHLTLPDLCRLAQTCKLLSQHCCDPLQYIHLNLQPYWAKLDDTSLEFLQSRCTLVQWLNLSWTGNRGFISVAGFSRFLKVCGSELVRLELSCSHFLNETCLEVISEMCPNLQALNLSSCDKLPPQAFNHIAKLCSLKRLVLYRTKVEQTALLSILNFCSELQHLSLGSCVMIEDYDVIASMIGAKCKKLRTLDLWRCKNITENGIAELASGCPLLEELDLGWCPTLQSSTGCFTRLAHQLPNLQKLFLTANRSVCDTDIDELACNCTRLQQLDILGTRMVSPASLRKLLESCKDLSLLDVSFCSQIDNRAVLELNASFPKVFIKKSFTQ
UniProt Q5XKK7: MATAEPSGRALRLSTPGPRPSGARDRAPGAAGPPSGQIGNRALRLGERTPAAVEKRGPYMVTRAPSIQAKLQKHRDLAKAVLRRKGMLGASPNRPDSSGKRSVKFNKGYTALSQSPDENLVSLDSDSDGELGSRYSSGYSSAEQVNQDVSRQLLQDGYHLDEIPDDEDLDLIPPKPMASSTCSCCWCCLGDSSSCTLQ
UniProt Q9H4M3: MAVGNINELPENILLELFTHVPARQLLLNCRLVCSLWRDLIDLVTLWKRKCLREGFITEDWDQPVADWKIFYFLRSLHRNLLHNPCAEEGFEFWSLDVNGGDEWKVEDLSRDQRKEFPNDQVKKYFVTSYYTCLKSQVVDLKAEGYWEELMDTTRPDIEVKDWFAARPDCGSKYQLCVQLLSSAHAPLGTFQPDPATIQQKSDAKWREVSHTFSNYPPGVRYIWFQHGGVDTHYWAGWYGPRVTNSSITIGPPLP
UniProt Q86XK2: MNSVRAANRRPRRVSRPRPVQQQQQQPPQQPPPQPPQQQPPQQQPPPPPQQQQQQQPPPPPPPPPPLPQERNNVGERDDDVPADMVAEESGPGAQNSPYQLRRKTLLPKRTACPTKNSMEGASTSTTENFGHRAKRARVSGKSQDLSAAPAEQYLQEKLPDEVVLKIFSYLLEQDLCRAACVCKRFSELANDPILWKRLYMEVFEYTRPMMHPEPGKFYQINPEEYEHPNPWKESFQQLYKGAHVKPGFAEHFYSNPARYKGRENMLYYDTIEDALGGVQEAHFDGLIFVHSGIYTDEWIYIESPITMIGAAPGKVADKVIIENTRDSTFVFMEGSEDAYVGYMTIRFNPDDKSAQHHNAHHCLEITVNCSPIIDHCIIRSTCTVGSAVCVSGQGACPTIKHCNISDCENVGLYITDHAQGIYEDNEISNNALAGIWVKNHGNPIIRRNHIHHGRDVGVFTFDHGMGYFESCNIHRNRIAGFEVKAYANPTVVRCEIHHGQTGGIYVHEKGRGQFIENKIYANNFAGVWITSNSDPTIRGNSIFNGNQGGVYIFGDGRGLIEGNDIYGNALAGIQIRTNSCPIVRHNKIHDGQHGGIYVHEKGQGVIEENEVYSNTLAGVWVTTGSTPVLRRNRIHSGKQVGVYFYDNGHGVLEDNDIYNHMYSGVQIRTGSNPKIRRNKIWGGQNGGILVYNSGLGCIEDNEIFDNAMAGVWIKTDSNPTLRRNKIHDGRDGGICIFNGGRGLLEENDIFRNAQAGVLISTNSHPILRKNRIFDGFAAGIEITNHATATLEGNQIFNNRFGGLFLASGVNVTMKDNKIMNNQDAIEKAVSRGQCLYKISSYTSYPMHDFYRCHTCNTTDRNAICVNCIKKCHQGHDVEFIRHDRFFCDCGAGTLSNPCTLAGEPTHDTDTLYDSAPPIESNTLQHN
UniProt Q96GI7: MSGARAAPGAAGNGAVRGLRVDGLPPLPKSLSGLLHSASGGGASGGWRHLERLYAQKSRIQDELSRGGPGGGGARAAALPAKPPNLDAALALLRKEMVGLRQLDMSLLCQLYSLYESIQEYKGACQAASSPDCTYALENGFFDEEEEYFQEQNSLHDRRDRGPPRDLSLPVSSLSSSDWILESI
UniProt Q96AC1: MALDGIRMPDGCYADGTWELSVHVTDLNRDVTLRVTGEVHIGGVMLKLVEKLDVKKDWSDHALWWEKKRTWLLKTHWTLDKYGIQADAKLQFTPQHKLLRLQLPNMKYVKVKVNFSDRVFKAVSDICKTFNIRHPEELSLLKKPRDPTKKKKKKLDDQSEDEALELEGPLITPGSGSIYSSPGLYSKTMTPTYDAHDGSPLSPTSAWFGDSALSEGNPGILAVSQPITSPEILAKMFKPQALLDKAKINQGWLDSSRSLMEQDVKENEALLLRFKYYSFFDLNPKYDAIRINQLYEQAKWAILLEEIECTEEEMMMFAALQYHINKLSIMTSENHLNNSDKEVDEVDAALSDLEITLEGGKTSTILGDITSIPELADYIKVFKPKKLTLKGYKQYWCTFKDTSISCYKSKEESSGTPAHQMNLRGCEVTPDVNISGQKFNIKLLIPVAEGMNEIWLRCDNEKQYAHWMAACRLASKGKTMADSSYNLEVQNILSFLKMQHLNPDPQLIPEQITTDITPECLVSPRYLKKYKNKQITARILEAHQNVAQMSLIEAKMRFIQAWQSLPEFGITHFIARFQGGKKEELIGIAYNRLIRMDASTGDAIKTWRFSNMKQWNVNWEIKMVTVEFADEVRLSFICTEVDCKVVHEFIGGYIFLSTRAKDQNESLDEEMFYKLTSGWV
UniProt Q96C11: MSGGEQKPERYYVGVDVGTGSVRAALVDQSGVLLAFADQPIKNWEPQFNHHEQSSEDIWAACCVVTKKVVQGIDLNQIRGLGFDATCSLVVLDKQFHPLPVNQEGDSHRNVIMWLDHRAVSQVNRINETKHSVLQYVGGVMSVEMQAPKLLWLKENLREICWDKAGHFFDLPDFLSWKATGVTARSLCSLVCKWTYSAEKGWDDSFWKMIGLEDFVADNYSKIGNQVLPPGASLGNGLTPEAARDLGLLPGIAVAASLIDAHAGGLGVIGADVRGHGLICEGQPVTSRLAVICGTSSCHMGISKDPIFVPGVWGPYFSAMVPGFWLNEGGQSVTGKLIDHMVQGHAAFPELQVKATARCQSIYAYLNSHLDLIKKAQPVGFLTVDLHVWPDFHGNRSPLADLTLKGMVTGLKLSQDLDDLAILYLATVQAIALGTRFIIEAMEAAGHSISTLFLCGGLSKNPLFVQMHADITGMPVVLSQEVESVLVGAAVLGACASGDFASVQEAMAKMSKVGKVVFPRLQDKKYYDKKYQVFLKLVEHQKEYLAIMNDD
UniProt Q8WU58: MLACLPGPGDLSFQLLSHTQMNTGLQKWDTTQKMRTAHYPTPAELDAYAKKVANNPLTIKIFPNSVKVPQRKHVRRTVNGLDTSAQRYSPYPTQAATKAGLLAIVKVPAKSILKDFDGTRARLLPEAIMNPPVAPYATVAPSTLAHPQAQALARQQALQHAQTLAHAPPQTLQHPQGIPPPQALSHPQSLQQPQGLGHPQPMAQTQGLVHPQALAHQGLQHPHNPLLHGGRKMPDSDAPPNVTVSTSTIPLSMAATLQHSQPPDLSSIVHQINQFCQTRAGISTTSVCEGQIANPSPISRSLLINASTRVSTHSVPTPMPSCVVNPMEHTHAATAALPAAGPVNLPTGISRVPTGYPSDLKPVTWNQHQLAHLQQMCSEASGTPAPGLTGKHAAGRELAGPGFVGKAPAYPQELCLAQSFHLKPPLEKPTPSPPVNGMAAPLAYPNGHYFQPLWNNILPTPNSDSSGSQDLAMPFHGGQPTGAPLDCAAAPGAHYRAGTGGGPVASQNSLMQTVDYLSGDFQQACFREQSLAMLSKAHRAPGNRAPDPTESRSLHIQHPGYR
UniProt Q9NVK5: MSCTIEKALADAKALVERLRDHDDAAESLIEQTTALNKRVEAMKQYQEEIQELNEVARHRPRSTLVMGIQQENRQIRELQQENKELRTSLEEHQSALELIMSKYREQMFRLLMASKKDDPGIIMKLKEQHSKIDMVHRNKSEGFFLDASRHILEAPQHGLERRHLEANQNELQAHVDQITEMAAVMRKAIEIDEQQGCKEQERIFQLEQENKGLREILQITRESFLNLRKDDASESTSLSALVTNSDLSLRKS
UniProt P16591: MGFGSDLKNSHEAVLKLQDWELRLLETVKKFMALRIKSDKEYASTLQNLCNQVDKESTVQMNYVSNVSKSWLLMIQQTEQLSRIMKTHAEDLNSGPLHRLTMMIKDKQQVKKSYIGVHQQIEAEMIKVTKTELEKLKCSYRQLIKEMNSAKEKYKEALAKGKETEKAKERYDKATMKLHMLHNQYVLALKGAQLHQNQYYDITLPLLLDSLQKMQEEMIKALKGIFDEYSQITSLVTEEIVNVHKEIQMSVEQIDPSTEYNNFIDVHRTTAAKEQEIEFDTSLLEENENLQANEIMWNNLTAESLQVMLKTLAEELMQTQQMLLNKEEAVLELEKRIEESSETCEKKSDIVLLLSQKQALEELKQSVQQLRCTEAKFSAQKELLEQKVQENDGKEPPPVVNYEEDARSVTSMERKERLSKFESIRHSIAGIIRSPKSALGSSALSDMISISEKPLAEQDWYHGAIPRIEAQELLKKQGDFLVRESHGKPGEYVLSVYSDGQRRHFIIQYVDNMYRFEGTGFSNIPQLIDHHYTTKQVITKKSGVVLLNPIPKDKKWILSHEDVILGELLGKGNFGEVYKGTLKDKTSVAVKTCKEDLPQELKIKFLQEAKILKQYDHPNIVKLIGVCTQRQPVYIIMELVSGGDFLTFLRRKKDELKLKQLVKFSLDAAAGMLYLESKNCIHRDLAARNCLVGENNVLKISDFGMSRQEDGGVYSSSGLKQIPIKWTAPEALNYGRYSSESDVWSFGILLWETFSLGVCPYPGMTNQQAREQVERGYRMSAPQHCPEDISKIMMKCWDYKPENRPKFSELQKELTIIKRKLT
UniProt Q06828: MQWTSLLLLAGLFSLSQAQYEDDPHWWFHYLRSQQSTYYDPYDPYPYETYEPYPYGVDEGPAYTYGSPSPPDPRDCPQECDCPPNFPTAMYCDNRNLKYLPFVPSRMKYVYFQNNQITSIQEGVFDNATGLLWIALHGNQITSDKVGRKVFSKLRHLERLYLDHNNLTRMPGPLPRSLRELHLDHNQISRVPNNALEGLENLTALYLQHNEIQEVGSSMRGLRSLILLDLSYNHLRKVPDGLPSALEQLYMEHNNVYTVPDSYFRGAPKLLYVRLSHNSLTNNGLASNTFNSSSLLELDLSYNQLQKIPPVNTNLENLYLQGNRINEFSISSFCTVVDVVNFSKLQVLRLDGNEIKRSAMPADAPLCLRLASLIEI
UniProt Q8N6M3: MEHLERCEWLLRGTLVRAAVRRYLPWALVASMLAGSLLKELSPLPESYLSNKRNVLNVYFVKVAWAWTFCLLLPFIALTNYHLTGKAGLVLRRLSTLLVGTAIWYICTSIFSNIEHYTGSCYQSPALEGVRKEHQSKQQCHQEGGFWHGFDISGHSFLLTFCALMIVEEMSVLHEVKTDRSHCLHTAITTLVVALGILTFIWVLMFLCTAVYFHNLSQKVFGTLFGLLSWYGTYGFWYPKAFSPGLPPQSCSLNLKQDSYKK
UniProt A6ND36: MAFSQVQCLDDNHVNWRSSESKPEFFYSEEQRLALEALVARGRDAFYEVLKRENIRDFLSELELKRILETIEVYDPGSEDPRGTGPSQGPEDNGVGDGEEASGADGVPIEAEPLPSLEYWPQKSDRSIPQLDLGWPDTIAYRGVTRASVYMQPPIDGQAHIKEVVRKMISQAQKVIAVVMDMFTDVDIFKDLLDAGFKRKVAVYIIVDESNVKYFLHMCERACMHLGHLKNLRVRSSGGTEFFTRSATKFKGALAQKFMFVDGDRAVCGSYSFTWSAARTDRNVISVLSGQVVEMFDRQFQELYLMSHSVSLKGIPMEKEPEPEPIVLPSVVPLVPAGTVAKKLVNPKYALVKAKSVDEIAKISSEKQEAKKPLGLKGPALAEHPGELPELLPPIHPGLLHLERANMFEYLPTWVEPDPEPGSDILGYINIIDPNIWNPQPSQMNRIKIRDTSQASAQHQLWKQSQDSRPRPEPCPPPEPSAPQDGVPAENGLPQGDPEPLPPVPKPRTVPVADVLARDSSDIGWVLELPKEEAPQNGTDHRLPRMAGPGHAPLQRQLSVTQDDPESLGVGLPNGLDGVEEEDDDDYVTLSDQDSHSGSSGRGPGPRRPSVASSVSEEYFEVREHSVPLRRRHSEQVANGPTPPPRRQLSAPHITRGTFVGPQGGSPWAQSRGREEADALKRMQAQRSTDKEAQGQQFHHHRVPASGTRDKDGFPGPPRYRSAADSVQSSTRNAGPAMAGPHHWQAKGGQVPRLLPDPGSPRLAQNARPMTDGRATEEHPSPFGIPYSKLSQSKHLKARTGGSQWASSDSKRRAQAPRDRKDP

Compound: NC(=O)Nc1cc(-c2cccc(F)c2)sc1C(=O)N[C@H]1CCCNC1
Assay: log2 fold change, soluble protein after heating vs DMSO (PISA); higher = thermal stabilisation; K562 cells, 10 uM, 30 min; active = over 0.2 and 3.5 SD of the protein, either way, in both replicates (recomputed)
Summary of the method: (§1)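 Values are thermal stability changes relative to control samples and are taken from duplicates. They are stated as log2 fold changes. Before quantification by TMTpro 16plex LC-MS/MS with equalised channel sums, K562 cells at 2×10^6 cells/mL were treated with 10 μM compound for 30 min, heated in aliquots for 3 min across 48°C-58°C, pooled, extracted in PBS with 0.5% NP-40 at 4°C, and centrifuged at 21,000xg for 90 min to give the soluble supernatant.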

Row | Target | log2 fold change
1 | FAT3 isoform 1 (UniProt Q8TDW7) | inactive: -0.131
2 | FMR1 (UniProt Q06787) | inactive: 0.086
3 | FBXL4 (UniProt Q9UKA2) | inactive: 0.483
4 | FAM219B (UniProt Q5XKK7) | inactive: 0.037
5 | FAM53C (UniProt Q9NYF3) | inactive: -0.127
6 | FBXL8 (UniProt Q96CD0) | inactive: 0.021
7 | FBXO44 (UniProt Q9H4M3) | inactive: -0.021
8 | FBXO11 isoform 5 (UniProt Q86XK2) | inactive: -0.041
9 | FAM89A (UniProt Q96GI7) | inactive: -0.185
10 | FKBP10 (UniProt Q96AY3) | inactive: -0.032
11 | FERMT2 isoform 3 (UniProt Q96AC1) | inactive: 0.126
12 | FAM86B2 (UniProt P0C5J1) | inactive: -0.072

Compound: NC(=O)c1cnc(N[C@@H]2CCCC[C@@H]2N)nc1Nc1cccc(-n2nccn2)c1
Assay: as above
Summary of the method: as §1

Row | Target | log2 fold change
13 | FARP2 (UniProt O94887) | inactive: -0.145
14 | FGGY isoform 3 (UniProt Q96C11) | inactive: 0.048
15 | FBRSL1 (UniProt Q9HCM7) | inactive: -0.1
16 | FAM222B (UniProt Q8WU58) | inactive: 0.287
17 | FGFR1OP2 (UniProt Q9NVK5) | inactive: 0.01
18 | FHAD1 isoform 3 (UniProt B1AJZ9) | inactive: -0.049
19 | FER (UniProt P16591) | inactive: 0.25
20 | FBF1 isoform 6 (UniProt Q8TES7) | inactive: -0.084
21 | FMOD (UniProt Q06828) | inactive: 0.022
22 | FAM98C (UniProt Q17RN3) | inactive: 0.164
23 | FMR1NB (UniProt Q8N0W7) | inactive: 0.028
24 | FANCL isoform 2 (UniProt Q9NW38) | inactive: -0.098
25 | FBXW11 (UniProt Q9UKB1) | inactive: -0.191
26 | FNBP1 (UniProt Q96RU3) | inactive: -0.129

Compound: NC1(c2ccc(-c3nc4ccn5c(=O)[nH]nc5c4cc3-c3ccccc3)cc2)CCC1
Assay: as above
Summary of the method: as §1

Row | Target | log2 fold change
27 | FGGY isoform 3 (UniProt Q96C11) | inactive: -0.038
28 | FAT2 (UniProt Q9NYQ8) | inactive: -0.334
29 | FAT3 isoform 1 (UniProt Q8TDW7) | inactive: 0.408
30 | FMR1 (UniProt Q06787) | active: 0.836
31 | FBXL4 (UniProt Q9UKA2) | inactive: 0.971
32 | FAM219B (UniProt Q5XKK7) | inactive: -0.025
33 | FAM222B (UniProt Q8WU58) | inactive: -0.015
34 | FGFR1OP2 (UniProt Q9NVK5) | inactive: -0.067
35 | FBXO9 (UniProt Q9UK97) | inactive: -0.079
36 | FITM2 (UniProt Q8N6M3) | inactive: 0.053
37 | FBXO11 isoform 5 (UniProt Q86XK2) | inactive: 0.25
38 | FAM89A (UniProt Q96GI7) | inactive: -0.035
39 | FERMT2 isoform 3 (UniProt Q96AC1) | inactive: 0.291
40 | FAM98C (UniProt Q17RN3) | inactive: -0.185
41 | FNIP1 (UniProt Q8TF40) | inactive: -0.435
42 | FAM53B (UniProt Q14153) | inactive: -0.155

Compound: NCC(=O)Nc1ccc(-n2nc(C(F)(F)F)cc2-c2ccc3c(ccc4ccccc43)c2)cc1
Assay: as above
Summary of the method: as §1

Row | Target | log2 fold change
43 | FARP2 (UniProt O94887) | inactive: -0.21
44 | FGGY isoform 3 (UniProt Q96C11) | inactive: 0.116
45 | FAT2 (UniProt Q9NYQ8) | inactive: -0.134
46 | FAT3 isoform 1 (UniProt Q8TDW7) | inactive: 0.094
47 | FBXL4 (UniProt Q9UKA2) | inactive: -0.059
48 | FLT1 (UniProt P17948) | inactive: -0.388
49 | FGFR1OP2 (UniProt Q9NVK5) | inactive: 0.076
50 | FBXO9 (UniProt Q9UK97) | inactive: -0.112
51 | FHAD1 isoform 3 (UniProt B1AJZ9) | inactive: 0.017
52 | FER (UniProt P16591) | inactive: -0.037
53 | FAM83G (UniProt A6ND36) | inactive: -0.039
54 | FANCL isoform 2 (UniProt Q9NW38) | inactive: 0.094
55 | FAM53B (UniProt Q14153) | inactive: -0.229
56 | FBXW11 (UniProt Q9UKB1) | inactive: -0.131

Compound: Nc1ccccc1NC(=O)c1ccc(CNC(=O)OCc2cccnc2)cc1 [entinostat]
Assay: as above
Summary of the method: as §1

Row | Target | log2 fold change
57 | FAT3 isoform 1 (UniProt Q8TDW7) | inactive: -0.037
58 | FMR1 (UniProt Q06787) | inactive: -0.106
59 | FBXL4 (UniProt Q9UKA2) | inactive: -0.012
60 | FAM219B (UniProt Q5XKK7) | inactive: 0.17
61 | FAM53C (UniProt Q9NYF3) | inactive: 0
62 | FER (UniProt P16591) | inactive: 0.032
63 | FBXL8 (UniProt Q96CD0) | inactive: 0.153
64 | FBXO44 (UniProt Q9H4M3) | inactive: 0.051
65 | FBXO11 isoform 5 (UniProt Q86XK2) | inactive: -0.158
66 | FAM89A (UniProt Q96GI7) | inactive: 0.026
67 | FKBP10 (UniProt Q96AY3) | inactive: 0.005
68 | FERMT2 isoform 3 (UniProt Q96AC1) | inactive: -0.048
69 | FAM86B2 (UniProt P0C5J1) | inactive: 0.055
